At least one compound was matched to its structure with a doubt left.
How the values were obtained:
[1] = target: Aβ42 (Homo sapiens, UniProt P05067); assay: Cleavage of oligomers of Aβ42 by cleavage agent (MALDI-TOF MS, cleavage yield); type: biochemical; details: Aβ42 4.0 μM, cleavage agent 0.50-1.0 μM, 37° C., pH 7.50, 36 hours
Description: (§1) The activity of each cleavage agent was tested at 37° C. and pH 7.50 (0.050 M phosphoric acid) in Eppendorf tubes unless indicated otherwise in the Examples.
(§2) To generate the monomeric form of Aβ40 or Aβ42 in the early reaction stage, Aβ40 or Aβ42 was treated with NaOH prior to exposure to the pH 7.50 reaction medium (Fezoui, Y.; Hartley, D. M.; Harper, J. D.; Khurana, R.; Walsh, D. M.; Condron, M. M.; Selkoe, D. J.; Lansbury, P. T. Jr.; Fink, A. L.; Teplow, D. B. Amyloid 2000, 7, 166-178). The results for measurement of the fraction of Aβ40 (◯) or Aβ42 ([…]) (initial concentration: 4.0 μM) passing the membrane with cut-off MW of 10000 after incubation at pH 7.50 and 37° C. for various periods of self-assembly are illustrated in FIG. 5. […]
(§3) A product solution formed by the cleavage reaction was passed through the membrane with a cut-off MW of 10000 to remove aggregates of Aβ40 or Aβ42. […] The cleavage yield was calculated by comparing the amount of the cleavage product with the initially added amount of the Aβ40 or Aβ42.
(§4) The cleavage yield measured by incubating Aβ40 or Aβ42 (4.0 μM) with various concentrations of cleavage agent A at pH 7.50 and 37° C. for 36 hours is illustrated in FIG. 8. The cleavage yields of Aβ40 or Aβ42 in the Examples are the mean value measured by using 4˜6 different reaction mixtures. […]

Protein sequences, listed by entry. Tags and fused reporters are not part of them. Residues count along the entry.
UniProt P05067, 672-713 limits assumed: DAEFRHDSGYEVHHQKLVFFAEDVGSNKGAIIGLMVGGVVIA
UniProt P05067, 672-711 limits assumed: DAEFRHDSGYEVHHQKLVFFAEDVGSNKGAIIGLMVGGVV

[2] = target: Aβ40 (Homo sapiens, UniProt P05067); assay: Cleavage of oligomers of Aβ40 by cleavage agent (MALDI-TOF MS, cleavage yield); type: biochemical; details: Aβ40 4.0 μM, cleavage agent 3.0 μM, 37° C., pH 7.50, 36 hours
Description: as §1, §2, §3, §4

Compound	cleavage products of Aβ42 (MALDI-TOF MS) [1]	cleavage products of Aβ40 (MALDI-TOF MS) [2]
CC(Nc1nc(NCc2ccc(Cl)cc2)nc(OCCN(C)c2ccc(-c3nc4ccccc4s3)cc2)n1)C(=O)NCCCN1CCNCCNCCNCC1.O.O.[Co+3] (stereo not drawn) [cleavage agent B]	Aβ1-20 and Aβ1-21	Aβ1-20 and Aβ1-21
Cc1ccccc1CNc1nc(NCCC(=O)NCCCN2CCNCCNCCNCC2)nc(OCCN(C)c2ccc(-c3nc4ccccc4s3)cc2)n1.O.O.[Co+3] [cleavage agent D]	Aβ1-20	

From US20100036122A1, “CLEAVAGE AGENT SELECTIVELY ACTING ON SOLUBLE ASSEMBLY OF AMYLOIDOGENIC PEPTIDE OR PROTEIN” (priority 2006, published 2010)
